# Values from PubChem BioAssay AID504764 (Drosophila RNAi Screening Center, 2011)
# Test: 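Knock-downs that raise or lower a Notch target reporter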 (primary screen)
# Cells: Drosophila Kc167 cells
# Reagent: long dsRNA against Drosophila genes
# Timing: about 5 days (4 days dsRNA, then 24 h after transfection)
# Treatment: transfection of constitutively active membrane-tethered Notch lacking the extracellular domain, read 24 h later
# Measurement: 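Firefly luciferase from an E(spl)m3 reporter with active Notch, plus control-promoter and uninduced reporter wells for normalisation; unnormalised counts, duplicate wells a and b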
# Direction: induced reporter light, run 1, well a and induced reporter light, run 1, well b: higher = more light from the Notch target reporter with active Notch; control promoter light, run 1, well a and control promoter light, run 1, well b: higher = more light from the viral control promoter (cell number, transfection, viability); uninduced reporter light, run 1, well a: higher = more light from the Notch target reporter without active Notch
# Rule for the call: 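Wells with low control signal or poorly matching duplicates excluded; duplicates averaged; per source plate, z beyond ±2 for induced/control log2 ratio or beyond ±1.8 for induced/uninduced marks a hit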
# Meaning of the calls: active = modifier hit (raised or lowered Notch signal); inactive = not a hit
# The deposit covers about 22,000 reagents; below is a random part of those with a known target gene and a result. Over the whole deposit, 403 (1.9%) were called active. 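Unnormalised raw counts per well; ratio z-scores behind the hit calls and whether each hit raises or lowers signal are not deposited.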 Entries without a mark were called inactive. Reagents against one gene are numbered here. Not given: the amount of reagent.
gene knocked down,reagent,"induced reporter light, run 1, well a","induced reporter light, run 1, well b","control promoter light, run 1, well a","control promoter light, run 1, well b","uninduced reporter light, run 1, well a"
CG3748 (GeneID 34252),1,1.52e5,2.24e5,1.21e5,1.46e5,24655
klhl10 (GeneID 3354863),1,2.14e5,2.38e5,3.07e5,3.34e5,23125
klhl10 (GeneID 3354863),2,98110,87050,1.05e5,1.08e5,8030
klhl10 (GeneID 3354863),3,1.06e5,98670,1.00e5,1.11e5,10925
klhl10 (GeneID 3354863),4,1.21e5,94440,97235,1.15e5,10412
Cpr76Bd (GeneID 40123),1,1.37e5,1.19e5,1.39e5,1.76e5,9305
melt (GeneID 38785),1,1.76e5,1.85e5,2.04e5,1.52e5,9590
CG17560 (GeneID 42022),1,3.03e5,3.41e5,2.66e5,2.85e5,23938
CG42540 (GeneID 38562),1,16595,16130,10875,6100,8325
CG42540 (GeneID 38562),2,2.20e5,2.52e5,2.10e5,2.30e5,11790
CG42540 (GeneID 38562),3,7770,8580,9780,11155,4420
CG15865 (GeneID 32641),1,66320,54780,66630,49510,8015
CG32260 (GeneID 317943),1,1.44e5,1.41e5,1.58e5,1.61e5,12425
CG3701 (retired record) (GeneID 37568),1,2.63e5,2.21e5,2.18e5,2.12e5,17970
CG3701 (retired record) (GeneID 37568),2,2.54e5,2.39e5,2.29e5,2.05e5,17435
epsilonCOP (GeneID 33908),1,68460,77785,66550,71080,5795
CG15772 (GeneID 31498),1,1.44e5,1.54e5,2.66e5,2.57e5,11335
Vps15 (GeneID 41096),1,1.01e5,1.07e5,77510,70820,9130
Vha44 (GeneID 36826),1,1.18e5,1.19e5,2.05e5,2.47e5,8420
Vha44 (GeneID 36826),2,1.55e5,1.38e5,1.46e5,1.36e5,13320
CG31221 (GeneID 42325),1,1.43e5,1.08e5,1.61e5,1.51e5,8438
CG31221 (GeneID 42325),2,1.86e5,1.63e5,2.16e5,1.86e5,11675
Taf9 (GeneID 32762),1,88900,82215,75845,32590,5615
Ndc1 (GeneID 42825),1,280,332,415,695,45
dila (GeneID 36010),1,1.62e5,1.60e5,2.08e5,2.12e5,16500
CG5103 (GeneID 40012),1,1.57e5,1.34e5,2.19e5,2.19e5,11030
CG4763 (GeneID 37771),1,1.55e5,1.94e5,2.83e5,2.62e5,9210
CG4763 (GeneID 37771),2,1.83e5,1.29e5,1.46e5,1.75e5,9765
CG31612 (GeneID 35427),1,56630,47490,53655,57980,2510
CG31612 (GeneID 35427),2,33460,32255,41210,37150,2020
Pect (GeneID 34716),1,2.20e5,2.73e5,2.22e5,2.25e5,19545
Pect (GeneID 34716),2,1.48e5,1.78e5,1.53e5,1.86e5,15075
mRpS35 (GeneID 38345),1,83630,1.17e5,1.46e5,1.00e5,5940

Entries listed so far whose target name starts with M or m (2):
gene knocked down,reagent,"induced reporter light, run 1, well a","induced reporter light, run 1, well b","control promoter light, run 1, well a","control promoter light, run 1, well b","uninduced reporter light, run 1, well a"
melt (GeneID 38785),1,1.76e5,1.85e5,2.04e5,1.52e5,9590
mRpS35 (GeneID 38345),1,83630,1.17e5,1.46e5,1.00e5,5940

Continued.
gene knocked down,reagent,"induced reporter light, run 1, well a","induced reporter light, run 1, well b","control promoter light, run 1, well a","control promoter light, run 1, well b","uninduced reporter light, run 1, well a"
CG30283 (GeneID 37454),1,73240,53690,46710,67740,2445
CG11241 (GeneID 40492),1,1.38e5,1.38e5,86565,95635,8245
Ref2 (GeneID 34667),1,1.77e5,2.02e5,1.93e5,2.05e5,16542
CG2233 (GeneID 31721),1,2.41e5,2.22e5,3.26e5,3.36e5,14825
baf (GeneID 34095),1,1.33e5,1.45e5,1.01e5,1.40e5,13555
TpnC47D (GeneID 36195),1,1.24e5,1.10e5,1.78e5,1.87e5,11185
CG6484 (GeneID 36994),1,84480,92510,1.65e5,1.83e5,9250
CG15546 (GeneID 43659),1,1.45e5,1.64e5,2.23e5,2.06e5,12820
ctp (GeneID 31405),1,2.88e5,2.44e5,3.43e5,3.29e5,20650
poe (GeneID 46243),1,1.37e5,1.08e5,1.06e5,91225,10245
cass (GeneID 35053),1,86145,1.01e5,72635,87820,6845
Atg2 (GeneID 38344),1,1.00e5,82500,1.62e5,1.79e5,7565
fwe (GeneID 39720),1,1.91e5,1.76e5,2.83e5,2.73e5,21085
fwe (GeneID 39720),2,1.25e5,1.10e5,79345,92395,10595
Sema1a (GeneID 34192),1,1.96e5,2.16e5,93975,1.22e5,23615
CG13978 (GeneID 43303),1,1.10e5,97720,1.53e5,1.52e5,12525
ProtB (GeneID 34867),1,1.53e5,1.62e5,1.69e5,1.80e5,15770
